According to the supplement of paper PMC10849652:
Some of the results follow.

By UniProt entry, the sequences of proteins in these tests, tags left out. Where a name states a change or a piece, a line headed by the entry shows the natural chain unless it says otherwise.
UniProt O95197: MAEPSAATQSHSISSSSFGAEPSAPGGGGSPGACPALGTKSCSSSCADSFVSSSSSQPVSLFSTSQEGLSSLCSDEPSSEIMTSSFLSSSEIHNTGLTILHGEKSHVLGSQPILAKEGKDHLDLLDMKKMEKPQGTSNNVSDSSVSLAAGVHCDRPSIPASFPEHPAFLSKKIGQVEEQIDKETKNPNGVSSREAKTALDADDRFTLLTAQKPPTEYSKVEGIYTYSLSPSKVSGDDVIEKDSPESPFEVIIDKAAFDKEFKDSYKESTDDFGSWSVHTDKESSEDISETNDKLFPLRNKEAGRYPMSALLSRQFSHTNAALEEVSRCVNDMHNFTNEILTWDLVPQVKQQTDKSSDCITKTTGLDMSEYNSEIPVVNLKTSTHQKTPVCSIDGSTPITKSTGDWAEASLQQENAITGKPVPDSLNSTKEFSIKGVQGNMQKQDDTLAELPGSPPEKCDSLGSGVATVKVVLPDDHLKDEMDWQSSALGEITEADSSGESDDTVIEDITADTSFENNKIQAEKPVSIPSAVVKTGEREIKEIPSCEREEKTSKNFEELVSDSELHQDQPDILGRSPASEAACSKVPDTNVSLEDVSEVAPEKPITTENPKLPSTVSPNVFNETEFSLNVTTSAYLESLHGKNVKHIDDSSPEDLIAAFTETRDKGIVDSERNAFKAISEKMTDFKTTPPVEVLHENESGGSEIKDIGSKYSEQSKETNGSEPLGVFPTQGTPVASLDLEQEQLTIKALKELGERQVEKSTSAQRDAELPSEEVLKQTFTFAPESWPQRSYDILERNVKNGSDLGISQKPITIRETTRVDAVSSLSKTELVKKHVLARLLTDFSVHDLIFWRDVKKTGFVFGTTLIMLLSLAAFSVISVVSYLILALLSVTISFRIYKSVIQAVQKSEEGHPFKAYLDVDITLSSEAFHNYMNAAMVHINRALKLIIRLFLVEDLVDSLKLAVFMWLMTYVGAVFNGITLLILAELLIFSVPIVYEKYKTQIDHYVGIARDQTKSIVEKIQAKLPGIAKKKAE
UniProt Q8WWV3: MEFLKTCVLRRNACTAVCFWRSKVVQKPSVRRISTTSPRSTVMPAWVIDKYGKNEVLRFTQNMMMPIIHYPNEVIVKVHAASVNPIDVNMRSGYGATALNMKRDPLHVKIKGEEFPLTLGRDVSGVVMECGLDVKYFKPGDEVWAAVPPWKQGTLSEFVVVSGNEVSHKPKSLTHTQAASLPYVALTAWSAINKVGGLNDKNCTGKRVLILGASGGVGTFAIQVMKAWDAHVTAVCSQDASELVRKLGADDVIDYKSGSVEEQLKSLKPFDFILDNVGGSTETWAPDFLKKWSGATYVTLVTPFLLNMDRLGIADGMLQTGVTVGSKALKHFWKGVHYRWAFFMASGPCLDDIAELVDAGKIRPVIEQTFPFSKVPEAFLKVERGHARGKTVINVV
UniProt Q96P16: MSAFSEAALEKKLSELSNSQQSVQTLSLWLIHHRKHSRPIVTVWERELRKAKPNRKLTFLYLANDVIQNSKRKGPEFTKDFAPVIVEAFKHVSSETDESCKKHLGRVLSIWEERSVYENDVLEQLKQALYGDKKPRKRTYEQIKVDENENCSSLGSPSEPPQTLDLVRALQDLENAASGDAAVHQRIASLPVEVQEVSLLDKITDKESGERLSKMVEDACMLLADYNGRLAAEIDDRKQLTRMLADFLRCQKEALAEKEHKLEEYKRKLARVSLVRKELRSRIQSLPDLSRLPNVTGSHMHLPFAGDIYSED
UniProt Q7L3V2: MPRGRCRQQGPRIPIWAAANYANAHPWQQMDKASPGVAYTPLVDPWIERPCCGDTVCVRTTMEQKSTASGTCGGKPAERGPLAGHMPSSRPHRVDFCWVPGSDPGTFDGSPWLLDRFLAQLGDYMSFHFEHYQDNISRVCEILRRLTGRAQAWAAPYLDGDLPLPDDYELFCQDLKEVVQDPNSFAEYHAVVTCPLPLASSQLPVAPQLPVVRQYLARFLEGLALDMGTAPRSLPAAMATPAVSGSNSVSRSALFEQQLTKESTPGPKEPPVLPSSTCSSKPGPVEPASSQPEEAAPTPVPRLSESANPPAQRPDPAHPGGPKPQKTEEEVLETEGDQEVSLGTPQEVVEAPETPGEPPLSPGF
UniProt Q15418, whole entry, looked up: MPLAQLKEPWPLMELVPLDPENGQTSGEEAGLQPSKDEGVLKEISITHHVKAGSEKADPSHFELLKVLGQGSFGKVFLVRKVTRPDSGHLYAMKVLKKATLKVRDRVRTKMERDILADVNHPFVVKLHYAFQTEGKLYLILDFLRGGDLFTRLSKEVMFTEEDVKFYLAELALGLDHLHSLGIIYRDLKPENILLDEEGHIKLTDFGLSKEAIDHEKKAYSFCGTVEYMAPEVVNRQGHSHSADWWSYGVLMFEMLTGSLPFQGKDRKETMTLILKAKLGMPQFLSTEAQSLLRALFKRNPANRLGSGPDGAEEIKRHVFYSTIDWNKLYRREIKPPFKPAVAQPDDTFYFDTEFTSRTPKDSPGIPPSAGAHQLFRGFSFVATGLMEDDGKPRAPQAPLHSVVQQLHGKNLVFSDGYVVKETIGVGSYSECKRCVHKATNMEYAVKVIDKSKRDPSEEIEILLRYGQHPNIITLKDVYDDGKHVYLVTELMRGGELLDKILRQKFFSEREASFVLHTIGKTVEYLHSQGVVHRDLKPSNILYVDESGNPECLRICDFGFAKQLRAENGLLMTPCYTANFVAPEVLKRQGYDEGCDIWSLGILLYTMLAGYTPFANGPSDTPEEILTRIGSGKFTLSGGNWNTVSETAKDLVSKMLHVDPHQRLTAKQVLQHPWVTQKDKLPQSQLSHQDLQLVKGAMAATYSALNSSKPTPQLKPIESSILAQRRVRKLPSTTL
UniProt Q9H446: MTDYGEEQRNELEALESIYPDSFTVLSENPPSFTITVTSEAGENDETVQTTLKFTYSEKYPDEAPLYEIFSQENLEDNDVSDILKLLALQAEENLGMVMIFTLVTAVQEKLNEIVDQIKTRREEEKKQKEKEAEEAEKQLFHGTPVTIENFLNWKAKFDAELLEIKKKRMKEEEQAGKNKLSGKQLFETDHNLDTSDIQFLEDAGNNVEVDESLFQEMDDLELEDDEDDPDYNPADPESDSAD
UniProt Q7LG56, whole entry, looked up: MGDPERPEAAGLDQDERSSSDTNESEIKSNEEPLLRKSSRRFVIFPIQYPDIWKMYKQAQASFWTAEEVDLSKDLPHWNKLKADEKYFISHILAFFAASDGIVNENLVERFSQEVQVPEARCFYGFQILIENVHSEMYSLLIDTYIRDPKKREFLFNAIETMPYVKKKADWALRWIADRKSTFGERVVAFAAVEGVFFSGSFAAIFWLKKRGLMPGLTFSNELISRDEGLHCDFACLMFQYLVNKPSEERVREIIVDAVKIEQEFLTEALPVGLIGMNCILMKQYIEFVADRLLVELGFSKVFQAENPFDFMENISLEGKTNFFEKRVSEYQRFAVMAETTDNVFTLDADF
UniProt Q9Y3A4: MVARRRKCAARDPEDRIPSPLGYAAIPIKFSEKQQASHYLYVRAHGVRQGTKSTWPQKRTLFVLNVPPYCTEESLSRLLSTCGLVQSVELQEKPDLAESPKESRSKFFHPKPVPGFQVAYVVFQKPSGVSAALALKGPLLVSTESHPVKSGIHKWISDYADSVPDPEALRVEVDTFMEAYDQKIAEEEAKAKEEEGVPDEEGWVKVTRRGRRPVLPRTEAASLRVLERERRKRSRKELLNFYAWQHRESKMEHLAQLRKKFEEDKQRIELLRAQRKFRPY
UniProt Q99584: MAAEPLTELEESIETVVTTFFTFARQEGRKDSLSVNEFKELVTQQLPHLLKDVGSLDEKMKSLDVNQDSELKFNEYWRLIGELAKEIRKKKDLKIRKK
UniProt Q9HA92: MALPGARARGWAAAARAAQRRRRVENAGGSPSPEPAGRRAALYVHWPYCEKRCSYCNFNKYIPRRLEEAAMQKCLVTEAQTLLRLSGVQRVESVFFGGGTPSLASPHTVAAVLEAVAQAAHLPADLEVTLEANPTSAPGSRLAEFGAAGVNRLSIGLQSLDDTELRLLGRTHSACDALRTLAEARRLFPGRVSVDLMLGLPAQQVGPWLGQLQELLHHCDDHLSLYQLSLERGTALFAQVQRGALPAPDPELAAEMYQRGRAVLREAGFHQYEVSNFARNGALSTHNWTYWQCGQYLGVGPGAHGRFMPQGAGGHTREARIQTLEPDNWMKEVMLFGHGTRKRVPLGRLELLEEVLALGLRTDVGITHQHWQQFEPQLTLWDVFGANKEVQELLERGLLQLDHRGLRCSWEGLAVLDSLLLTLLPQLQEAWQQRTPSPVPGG
UniProt O75818: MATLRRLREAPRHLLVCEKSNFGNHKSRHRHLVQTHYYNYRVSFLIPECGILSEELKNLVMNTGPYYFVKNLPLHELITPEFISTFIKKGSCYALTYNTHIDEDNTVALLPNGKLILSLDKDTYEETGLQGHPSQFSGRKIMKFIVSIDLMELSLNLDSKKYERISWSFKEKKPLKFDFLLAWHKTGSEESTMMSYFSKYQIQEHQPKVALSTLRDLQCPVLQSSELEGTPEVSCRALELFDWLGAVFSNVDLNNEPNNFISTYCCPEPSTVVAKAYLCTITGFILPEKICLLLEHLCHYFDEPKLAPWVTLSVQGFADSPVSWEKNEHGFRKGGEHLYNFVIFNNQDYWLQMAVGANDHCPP
UniProt Q92622: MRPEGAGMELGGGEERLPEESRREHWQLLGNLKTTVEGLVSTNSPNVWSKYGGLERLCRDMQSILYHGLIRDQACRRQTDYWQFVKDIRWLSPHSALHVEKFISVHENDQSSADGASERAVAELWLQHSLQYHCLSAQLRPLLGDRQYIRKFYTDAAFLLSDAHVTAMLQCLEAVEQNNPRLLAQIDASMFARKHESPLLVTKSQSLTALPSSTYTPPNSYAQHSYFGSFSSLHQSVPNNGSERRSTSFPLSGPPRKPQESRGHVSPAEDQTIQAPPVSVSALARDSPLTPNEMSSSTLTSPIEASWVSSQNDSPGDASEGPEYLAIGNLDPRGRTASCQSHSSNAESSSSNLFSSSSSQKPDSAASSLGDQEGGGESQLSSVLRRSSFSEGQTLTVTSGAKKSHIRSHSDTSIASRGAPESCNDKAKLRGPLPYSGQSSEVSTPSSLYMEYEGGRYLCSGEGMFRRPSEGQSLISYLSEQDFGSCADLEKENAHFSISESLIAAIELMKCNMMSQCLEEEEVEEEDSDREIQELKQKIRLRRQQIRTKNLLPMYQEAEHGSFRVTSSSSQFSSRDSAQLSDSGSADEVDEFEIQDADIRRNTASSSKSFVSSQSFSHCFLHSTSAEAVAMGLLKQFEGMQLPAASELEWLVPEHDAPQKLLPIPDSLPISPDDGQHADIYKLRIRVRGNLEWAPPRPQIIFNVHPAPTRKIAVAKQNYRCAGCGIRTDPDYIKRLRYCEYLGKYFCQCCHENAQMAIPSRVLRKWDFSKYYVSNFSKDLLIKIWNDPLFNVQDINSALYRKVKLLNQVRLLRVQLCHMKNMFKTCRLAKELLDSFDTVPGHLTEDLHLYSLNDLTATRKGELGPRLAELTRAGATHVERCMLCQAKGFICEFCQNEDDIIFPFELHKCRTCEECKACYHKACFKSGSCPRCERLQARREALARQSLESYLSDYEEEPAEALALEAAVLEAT
UniProt Q6NW29: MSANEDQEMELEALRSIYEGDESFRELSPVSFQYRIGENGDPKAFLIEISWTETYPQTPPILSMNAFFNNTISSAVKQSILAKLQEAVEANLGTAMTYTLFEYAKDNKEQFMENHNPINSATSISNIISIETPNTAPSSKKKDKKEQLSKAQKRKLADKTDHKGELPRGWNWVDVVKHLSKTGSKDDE
UniProt P23921: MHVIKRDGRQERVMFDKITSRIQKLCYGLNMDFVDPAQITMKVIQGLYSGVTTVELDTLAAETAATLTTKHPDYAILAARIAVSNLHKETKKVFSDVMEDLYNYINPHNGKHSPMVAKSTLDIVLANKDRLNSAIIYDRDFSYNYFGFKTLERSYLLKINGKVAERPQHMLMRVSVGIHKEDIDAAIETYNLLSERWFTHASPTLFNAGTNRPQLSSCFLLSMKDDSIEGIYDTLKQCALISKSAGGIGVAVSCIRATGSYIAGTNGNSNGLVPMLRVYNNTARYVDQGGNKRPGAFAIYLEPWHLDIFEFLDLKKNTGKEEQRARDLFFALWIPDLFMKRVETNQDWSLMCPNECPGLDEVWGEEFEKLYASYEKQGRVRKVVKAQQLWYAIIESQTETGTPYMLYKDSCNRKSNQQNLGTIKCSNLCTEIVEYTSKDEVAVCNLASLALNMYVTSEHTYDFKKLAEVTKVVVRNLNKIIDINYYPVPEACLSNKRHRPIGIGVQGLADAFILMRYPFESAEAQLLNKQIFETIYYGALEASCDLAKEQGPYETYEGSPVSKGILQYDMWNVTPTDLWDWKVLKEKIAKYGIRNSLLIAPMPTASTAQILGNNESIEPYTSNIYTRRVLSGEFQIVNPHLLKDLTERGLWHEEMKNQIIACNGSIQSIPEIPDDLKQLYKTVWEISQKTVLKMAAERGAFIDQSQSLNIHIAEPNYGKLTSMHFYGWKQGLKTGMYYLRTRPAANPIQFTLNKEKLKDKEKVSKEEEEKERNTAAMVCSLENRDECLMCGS

Tests used:
Assay in all cases: log2 fold change, soluble protein after heating vs DMSO (PISA); higher = thermal stabilisation; K562 lysate, 10 uM; active = over 0.2 and 3.5 SD of the protein, either way, in both replicates (recomputed)
[1] = compound: C#Cc1cccc(Nc2ncnc3cc(OCCOC)c(OCCOC)cc23)c1 [erlotinib]
Procedure, shortened: (§1)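 Soluble protein was defined as the supernatant remaining after 21,000xg for 90 min, following pooling of heated aliquots and adjustment to 0.5% NP-40 at 4°C. Before that, crude K562 extract at 1 mg/mL protein in PBS pH 7.4 with 1 mM MgCl2 was treated with 10 μM compound for 30 min and heated for 3 min across 48°C-58°C. Quantification used TMTpro 16plex LC-MS/MS with channel sums equalised, and values are log-two fold changes in thermal stability relative to solvent controls from duplicates.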

[2] = compound: C/C(=N\NC(=O)C1=CC(=CC=C1)S(=O)(=O)N2CCOCC2)/C3=C(C=CC(=C3)Cl)O
Procedure, shortened: as §1

[3] = compound: C1=CC(=CC=C1C2=NC3=C(N2)C=C(C=C3)C(=O)N)OC4=CC=C(C=C4)Cl
Procedure, shortened: as §1

[4] = compound: C1=CC2=C(C=CC(=C2)/C=C\3/C(=O)NC(=NCC4=CC=CS4)S3)N=C1
Procedure, shortened: as §1

[5] = compound: C1=CC2=NC=CN=C2C=C1/C=C/3\C(=O)NC(=O)S3
Procedure, shortened: as §1

[6] = compound: C1=CC=C(C=C1)C2=NC(=C(N2)C3=CC=NC=C3)C4=CC(=C(C=C4)Cl)O
Procedure, shortened: as §1

[7] = compound: C1=CC=C2C(=C1)C3=NNC4=CC=CC(=C43)C2=O
Procedure, shortened: as §1

[8] = compound: C1CCN(C1)C(=O)NC2=CC=CC(=C2)NC3=NC=C(C(=N3)NCCC4=CN=CN4)Br
Procedure, shortened: as §1

[9] = compound: C1CN(CCC1(CC2=CC=C(C=C2)Cl)N)C3=NC=NC4=C3C=CN4
Procedure, shortened: as §1

[10] = compound: C1COCCN1CCN2C3=CC=CC=C3N=C2NC(=O)C4=CC(=CC=C4)[N+](=O)[O-] [IRAK-1-4 Inhibitor I]
Procedure, shortened: as §1

Row | Target | log2 fold change [1] | log2 fold change [2] | log2 fold change [3] | log2 fold change [4] | log2 fold change [5] | log2 fold change [6] | log2 fold change [7] | log2 fold change [8] | log2 fold change [9] | log2 fold change [10]
1 | RPL38 (UniProt P63173) | inactive: -0.014 | inactive: -0.013 | inactive: 0.009 | inactive: -0.025 | inactive: -0.048 | inactive: -0.03 | inactive: -0.042 | inactive: -0.015 | inactive: -0.026 | inactive: 0.021
2 | RPS6 (UniProt P62753) | inactive: -0.033 | inactive: -0.034 | inactive: -0.045 | inactive: 0.003 | inactive: -0.004 | inactive: -0.01 | inactive: -0.015 | inactive: 0.014 | inactive: -0.024 | inactive: 0.006
3 | RTCA (UniProt O00442) | inactive: -0.026 | inactive: 0.007 | inactive: 0.034 | inactive: -0.026 | inactive: -0.006 | inactive: 0.021 | inactive: -0.013 | inactive: -0.026 | inactive: 0 | inactive: 0.015
4 | RTN3 (UniProt O95197) | inactive: 0.027 | inactive: -0.018 | inactive: -0.007 | inactive: -0.024 | inactive: -0.014 | inactive: 0.012 | inactive: -0.03 | inactive: -0.071 | inactive: 0.007 | inactive: 0.016
5 | RPS14 (UniProt P62263) | inactive: -0.021 | inactive: 0.057 | inactive: -0.013 | inactive: -0.016 | inactive: -0.051 | inactive: -0.006 | inactive: 0.011 | inactive: 0.004 | inactive: -0.017 | inactive: 0.013
6 | RTN4IP1 (UniProt Q8WWV3) | inactive: -0.028 | inactive: 0.031 | inactive: -0.028 | inactive: 0.065 | inactive: -0.017 | inactive: -0.003 | inactive: 0.022 | inactive: 0.033 | inactive: -0.016 | inactive: 0.011
7 | RPS24 isoform 4 (UniProt P62847) | inactive: -0.01 | inactive: 0.017 | inactive: 0.03 | inactive: -0.015 | inactive: -0.026 | inactive: 0.012 | inactive: -0.015 | inactive: -0.017 | inactive: -0.001 | inactive: -0.016
8 | RPS12 (UniProt P25398) | inactive: 0.033 | inactive: 0.02 | inactive: -0.009 | inactive: -0.022 | inactive: -0.007 | inactive: 0.038 | inactive: 0.025 | inactive: 0.044 | inactive: 0.016 | inactive: -0.001
9 | RPLP0P6 (UniProt Q8NHW5) | inactive: -0.003 | inactive: -0.069 | inactive: -0.034 | inactive: 0.026 | inactive: -0.05 | inactive: 0.009 | inactive: 0.03 | inactive: 0.024 | inactive: 0.004 | inactive: 0.008
10 | RPRD1A (UniProt Q96P16) | inactive: 0.015 | inactive: 0 | inactive: 0.012 | inactive: 0.001 | inactive: -0.021 | inactive: 0.005 | inactive: -0.048 | inactive: -0.04 | inactive: -0.018 | inactive: -0.022
11 | RTL10 (UniProt Q7L3V2) | inactive: 0.127 | inactive: -0.017 | inactive: 0.103 | inactive: -0.034 | inactive: 0.028 | inactive: -0.029 | inactive: 0.022 | inactive: -0.05 | inactive: -0.011 | inactive: 0.135
12 | RPS19 (UniProt P39019) | inactive: -0.017 | inactive: -0.002 | inactive: -0.016 | inactive: -0.04 | inactive: -0.004 | inactive: -0.006 | inactive: 0.025 | inactive: 0.007 | inactive: -0.015 | inactive: -0.01
13 | RPS6KA1 (UniProt Q15418) | inactive: 0.001 | inactive: -0.064 | inactive: 0.006 | inactive: -0.029 | inactive: 0.04 | inactive: 0.13 | active: 0.509 | inactive: -0.009 | inactive: 0.06 | inactive: -0.036
14 | RWDD1 (UniProt Q9H446) | inactive: -0.015 | inactive: 0.007 | inactive: 0.015 | inactive: 0.003 | inactive: -0.033 | inactive: 0.01 | inactive: 0.061 | inactive: -0.017 | inactive: -0.032 | inactive: 0.003
15 | RRP12 (UniProt Q5JTH9) | inactive: 0.064 | inactive: -0.012 | inactive: -0.049 | inactive: 0.016 | inactive: -0.022 | inactive: 0.037 | inactive: 0.084 | inactive: -0.008 | inactive: 0.017 | inactive: 0.014
16 | RPS15 (UniProt P62841) | inactive: -0.023 | inactive: 0.061 | inactive: 0.016 | inactive: 0.005 | inactive: -0.014 | inactive: -0.024 | inactive: 0.003 | inactive: 0.047 | inactive: 0.015 | inactive: 0.039
17 | RRM2 isoform 2 (UniProt P31350) | inactive: -0.047 | inactive: -0.015 | inactive: -0.018 | inactive: -0.004 | inactive: -0.002 | inactive: 0.005 | inactive: 0.037 | inactive: -0.026 | inactive: -0.038 | inactive: -0.012

As entered above:
log2 fold change [1] with RPS15 (UniProt P62841) is entered as inactive: -0.023
log2 fold change [1] with RPLP0P6 (UniProt Q8NHW5) is entered as inactive: -0.003

Next entries follow.

Row | Target | log2 fold change [1] | log2 fold change [2] | log2 fold change [3] | log2 fold change [4] | log2 fold change [5] | log2 fold change [6] | log2 fold change [7] | log2 fold change [8] | log2 fold change [9] | log2 fold change [10]
18 | RRM2B isoform 6 (UniProt Q7LG56) | inactive: -0.029 | inactive: 0.002 | inactive: -0.019 | inactive: -0.006 | inactive: 0 | inactive: 0.014 | inactive: -0.01 | inactive: -0.045 | inactive: -0.001 | inactive: 0.003
19 | RRP7A (UniProt Q9Y3A4) | inactive: 0.038 | inactive: 0 | inactive: 0.035 | inactive: -0.02 | inactive: 0.038 | inactive: 0.011 | inactive: -0.072 | inactive: 0.022 | inactive: 0.04 | inactive: 0.005
20 | RPL6 (UniProt Q02878) | inactive: 0 | inactive: -0.012 | inactive: -0.038 | inactive: -0.011 | inactive: -0.014 | inactive: 0.021 | inactive: 0.055 | inactive: 0.055 | inactive: -0.011 | inactive: 0.006
21 | S100A13 (UniProt Q99584) | inactive: 0.012 | inactive: 0.072 | inactive: 0.029 | inactive: 0.007 | inactive: -0.007 | inactive: -0.025 | inactive: 0.037 | inactive: 0.055 | inactive: 0.035 | inactive: -0.003
22 | RUVBL1 (UniProt Q9Y265) | inactive: -0.015 | inactive: -0.09 | inactive: 0.016 | inactive: -0.018 | inactive: 0 | inactive: 0.01 | inactive: 0.019 | inactive: 0.004 | inactive: 0.001 | inactive: 0.016
23 | RPS7 (UniProt P62081) | inactive: -0.012 | inactive: -0.119 | inactive: 0.016 | inactive: 0.008 | inactive: -0.035 | inactive: 0.013 | inactive: -0.022 | inactive: 0.024 | inactive: -0.001 | inactive: 0.003
24 | RSAD1 (UniProt Q9HA92) | inactive: 0.051 | inactive: -0.029 | inactive: 0.118 | inactive: -0.025 | inactive: -0.001 | inactive: -0.016 | inactive: -0.098 | inactive: -0.081 | inactive: 0.23 | inactive: 0.002
25 | RPL7A (UniProt P62424) | inactive: -0.002 | inactive: -0.08 | inactive: -0.005 | inactive: -0.015 | inactive: -0.012 | inactive: 0.045 | inactive: 0.025 | inactive: 0.045 | inactive: 0.008 | inactive: 0.028
26 | RPP40 (UniProt O75818) | inactive: -0.023 | inactive: -0.019 | inactive: -0.03 | inactive: 0.025 | inactive: -0.043 | inactive: 0.017 | inactive: 0.035 | inactive: 0.059 | inactive: -0.031 | inactive: -0.01
27 | RPLP2 (UniProt P05387) | inactive: -0.008 | inactive: -0.032 | inactive: -0.038 | inactive: 0.03 | inactive: 0.025 | inactive: 0.028 | inactive: -0.012 | inactive: 0.047 | inactive: 0.002 | inactive: 0.004
28 | RUBCN (UniProt Q92622) | inactive: 0.157 | inactive: 0.094 | inactive: -0.126 | inactive: -0.116 | inactive: -0.038 | inactive: -0.027 | inactive: -0.04 | inactive: 0.009 | inactive: -0.054 | inactive: 0.005
29 | RRBP1 (UniProt Q9P2E9) | inactive: -0.021 | inactive: 0.001 | inactive: -0.031 | inactive: 0.02 | inactive: 0.003 | inactive: -0.012 | inactive: -0.004 | inactive: 0.012 | inactive: -0.021 | inactive: -0.005
30 | RPS26 (UniProt P62854) | inactive: 0.007 | inactive: 0.012 | inactive: 0.06 | inactive: 0.022 | inactive: 0.054 | inactive: 0.031 | inactive: 0.063 | inactive: -0.015 | inactive: -0.022 | inactive: -0.019
31 | RRAGA (UniProt Q7L523) | inactive: -0.022 | inactive: -0.019 | inactive: 0.001 | inactive: -0.065 | inactive: 0.118 | inactive: -0.107 | inactive: -0.008 | inactive: -0.062 | inactive: 0.005 | inactive: 0.026
32 | RWDD4 (UniProt Q6NW29) | inactive: -0.049 | inactive: 0.03 | inactive: -0.012 | inactive: -0.064 | inactive: -0.021 | inactive: 0.003 | inactive: 0.041 | inactive: -0.036 | inactive: -0.002 | inactive: -0.016
33 | RRM1 (UniProt P23921) | inactive: 0.018 | inactive: -0.019 | inactive: 0.007 | inactive: 0.025 | inactive: 0.029 | inactive: -0.01 | inactive: -0.043 | inactive: -0.046 | inactive: -0.022 | inactive: 0.021
34 | RPL9 (UniProt P32969) | inactive: 0.007 | inactive: -0.069 | inactive: 0 | inactive: 0.021 | inactive: -0.009 | inactive: 0.019 | inactive: -0.019 | inactive: 0.008 | inactive: -0.011 | inactive: 0.006

Only log2 fold change [9], for some of the entries so far:
Row | Target | log2 fold change [9]
19 | RRP7A (UniProt Q9Y3A4) | inactive: 0.04
30 | RPS26 (UniProt P62854) | inactive: -0.022

Random excerpt: two entries already listed
Row | Target | log2 fold change [1] | log2 fold change [2] | log2 fold change [3] | log2 fold change [4] | log2 fold change [5] | log2 fold change [6] | log2 fold change [7] | log2 fold change [8] | log2 fold change [9] | log2 fold change [10]
23 | RPS7 (UniProt P62081) | inactive: -0.012 | inactive: -0.119 | inactive: 0.016 | inactive: 0.008 | inactive: -0.035 | inactive: 0.013 | inactive: -0.022 | inactive: 0.024 | inactive: -0.001 | inactive: 0.003
25 | RPL7A (UniProt P62424) | inactive: -0.002 | inactive: -0.08 | inactive: -0.005 | inactive: -0.015 | inactive: -0.012 | inactive: 0.045 | inactive: 0.025 | inactive: 0.045 | inactive: 0.008 | inactive: 0.028
